Measurements: PMC5619820
Results are given in words; binding and its absence hold for the method and conditions named. In cells and extracts the contact can be indirect. Some entries that bind do so weakly or less than the wild type.

By UniProt entry, the sequences of proteins in these tests, tags left out. Residues count along the entry.
UniProt P10275: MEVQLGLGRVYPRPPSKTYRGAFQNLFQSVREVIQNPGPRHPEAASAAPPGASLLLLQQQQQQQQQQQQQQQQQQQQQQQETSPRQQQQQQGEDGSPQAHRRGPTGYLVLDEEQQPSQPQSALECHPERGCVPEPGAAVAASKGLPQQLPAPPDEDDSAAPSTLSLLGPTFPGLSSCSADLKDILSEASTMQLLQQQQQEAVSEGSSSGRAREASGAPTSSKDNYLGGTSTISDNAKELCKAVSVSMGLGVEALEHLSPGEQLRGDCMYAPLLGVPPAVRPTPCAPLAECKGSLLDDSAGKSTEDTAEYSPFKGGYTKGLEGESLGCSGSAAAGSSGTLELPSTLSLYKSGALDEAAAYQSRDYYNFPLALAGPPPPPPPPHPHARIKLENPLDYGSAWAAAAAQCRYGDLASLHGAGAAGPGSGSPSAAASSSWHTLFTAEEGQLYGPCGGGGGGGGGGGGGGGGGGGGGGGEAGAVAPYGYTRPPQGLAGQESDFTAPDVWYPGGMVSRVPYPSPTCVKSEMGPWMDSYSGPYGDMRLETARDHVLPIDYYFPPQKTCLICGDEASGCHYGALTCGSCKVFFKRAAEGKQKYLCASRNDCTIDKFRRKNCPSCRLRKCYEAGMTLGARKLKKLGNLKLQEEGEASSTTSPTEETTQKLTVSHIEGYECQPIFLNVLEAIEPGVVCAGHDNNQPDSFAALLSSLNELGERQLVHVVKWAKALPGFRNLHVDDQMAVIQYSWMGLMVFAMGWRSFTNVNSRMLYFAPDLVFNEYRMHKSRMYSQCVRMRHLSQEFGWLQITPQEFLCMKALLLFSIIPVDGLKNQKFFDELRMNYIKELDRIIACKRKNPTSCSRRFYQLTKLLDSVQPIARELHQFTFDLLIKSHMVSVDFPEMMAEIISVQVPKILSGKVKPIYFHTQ
UniProt P29317, residues 24-976: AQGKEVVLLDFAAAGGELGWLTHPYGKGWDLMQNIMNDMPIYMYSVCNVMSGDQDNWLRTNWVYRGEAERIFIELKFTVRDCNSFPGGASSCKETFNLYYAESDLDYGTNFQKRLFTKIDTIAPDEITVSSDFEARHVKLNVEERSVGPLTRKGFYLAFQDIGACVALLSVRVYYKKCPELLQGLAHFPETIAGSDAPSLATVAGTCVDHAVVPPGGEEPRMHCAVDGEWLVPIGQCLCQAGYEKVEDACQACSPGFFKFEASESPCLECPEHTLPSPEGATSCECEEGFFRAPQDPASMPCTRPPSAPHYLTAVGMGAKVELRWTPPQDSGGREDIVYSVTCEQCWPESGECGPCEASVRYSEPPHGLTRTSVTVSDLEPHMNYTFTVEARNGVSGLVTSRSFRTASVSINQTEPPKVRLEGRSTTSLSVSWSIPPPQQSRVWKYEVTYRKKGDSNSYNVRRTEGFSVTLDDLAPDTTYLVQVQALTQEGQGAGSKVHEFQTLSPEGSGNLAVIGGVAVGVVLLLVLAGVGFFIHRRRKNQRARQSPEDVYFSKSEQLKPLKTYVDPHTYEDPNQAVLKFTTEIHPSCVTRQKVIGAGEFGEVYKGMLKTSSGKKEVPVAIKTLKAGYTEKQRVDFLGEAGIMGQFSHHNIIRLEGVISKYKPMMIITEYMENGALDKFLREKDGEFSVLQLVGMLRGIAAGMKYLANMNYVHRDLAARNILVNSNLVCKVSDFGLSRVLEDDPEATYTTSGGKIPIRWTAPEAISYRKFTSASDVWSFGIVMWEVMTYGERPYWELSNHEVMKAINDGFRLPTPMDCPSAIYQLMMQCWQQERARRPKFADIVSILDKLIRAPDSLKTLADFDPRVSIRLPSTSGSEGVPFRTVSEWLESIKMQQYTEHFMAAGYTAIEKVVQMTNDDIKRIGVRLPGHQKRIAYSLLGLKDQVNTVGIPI

Molecular target: androgen receptor (AR), endogenous in SLK cells (human (endogenous in SLK)) (UniProt P10275)
Assay: co-IP; endogenous proteins; SLK cells serum-starved 6 h, uninfected or KSHV-infected for the indicated times; lysate in RIPA buffer precipitated with an anti-AR antibody, western blotting

Question: With “EphA2 phosphorylated at Ser897, endogenous in KSHV-infected SLK cells (from UniProt P29317 24-976) (receptor)” as the substance, how does the binding read?
Answer: binds

Question: Which binding does the source give for “ephrin receptor A2 (EphA2), endogenous in SLK cells (from UniProt P29317 24-976)” here?
Answer: binds
